Reference: patent publication US20090326196A1 (Trustees of Tufts College, priority 2006, published 2009)
Not every detail of the peptide structures is certain; ends, links or a residue may be inferred. Square brackets hold non-standard residues; d marks the D form. Peptide text beside a SMILES is read from it. Leu(5,5,5,5',5',5'-F6) = N[C@@H](CC(C(F)(F)F)C(F)(F)F)C(=O)O

Legend:
[1] = Table 8
[2] = tested on: Gram-negative Escherichia coli (ATCC 23716); experiment: Minimal inhibitory concentration (MIC), turbidity assay, E. coli; format: cell-based; conditions: against E. coli, relative to M2
[3] = tested on: Gram-positive Bacillus subtilis (SMY); experiment: Minimal inhibitory concentration (MIC), turbidity assay, B. subtilis; format: cell-based; conditions: against B. subtilis, relative to M2

Row | SMILES | Initial rate constants [1] | fold less active than M2 (MIC) [2] | fold less active than M2 (MIC) [3]
1 | CC(C)C[C@H](NC(=O)CNC(=O)[C@H](C)NC(=O)[C@@H](N)CCCNC(=N)N)C(=O)N[C@@H](CCC(N)=O)C(=O)N[C@@H](Cc1ccccc1)C(=O)N1CCC[C@H]1C(=O)N[C@H](C(=O)NCC(=O)N[C@@H](CCCNC(=N)N)C(=O)N[C@H](C(=O)N[C@@H](Cc1c[nH]cn1)C(=O)N[C@@H](CCCNC(=N)N)C(=O)N[C@@H](CC(C)C)C(=O)N[C@@H](CC(C)C)C(=O)N[C@@H](CCCNC(=N)N)C(=O)N[C@@H](CCCCN)C(=O)O)C(C)C)C(C)C [BII5, buforin II(5-21)] (H-RAGLQFPVGRVHRLLRK-OH) | 0.084 ± 0.003 min⁻¹ | – | –
2 | CC(C)C[C@H](NC(=O)CNC(=O)[C@H](C)NC(=O)[C@@H](N)CCCNC(=N)N)C(=O)N[C@@H](CCC(N)=O)C(=O)N[C@@H](Cc1ccccc1)C(=O)N1CCC[C@H]1C(=O)N[C@H](C(=O)NCC(=O)N[C@@H](CCCNC(=N)N)C(=O)N[C@H](C(=O)N[C@@H](Cc1c[nH]cn1)C(=O)N[C@@H](CCCNC(=N)N)C(=O)N[C@@H](CC(C(F)(F)F)C(F)(F)F)C(=O)N[C@@H](CC(C(F)(F)F)C(F)(F)F)C(=O)N[C@@H](CCCNC(=N)N)C(=O)N[C@@H](CCCCN)C(=O)O)C(C)C)C(C)C [BII5F2] (H-RAGLQFPVGRVHR[Leu(5,5,5,5',5',5'-F6)][Leu(5,5,5,5',5',5'-F6)]RK-OH) | 0.031 ± 0.001 min⁻¹ | – | –
3 | CC[C@H](C)[C@H](NC(=O)CN)C(=O)NCC(=O)N[C@@H](CCCCN)C(=O)N[C@@H](Cc1ccccc1)C(=O)N[C@@H](CC(C)C)C(=O)N[C@@H](Cc1c[nH]cn1)C(=O)N[C@@H](CO)C(=O)N[C@@H](C)C(=O)N[C@@H](CCCCN)C(=O)N[C@@H](CCCCN)C(=O)N[C@@H](Cc1ccccc1)C(=O)NCC(=O)N[C@@H](CCCCN)C(=O)N[C@@H](C)C(=O)N[C@@H](Cc1ccccc1)C(=O)N[C@H](C(=O)NCC(=O)N[C@@H](CCC(=O)O)C(=O)N[C@H](C(=O)N[C@@H](CCSC)C(=O)N[C@@H](CC(N)=O)C(=O)N[C@@H](CO)C(N)=O)[C@@H](C)CC)C(C)C [Peptide M2, magainin 2] (H-GIGKFLHSAKKFGKAFVGEIMNS-NH2) | 0.200 min⁻¹ | – | –
4 | CC[C@H](C)[C@H](NC(=O)CN)C(=O)NCC(=O)N[C@@H](CCCCN)C(=O)N[C@@H](Cc1ccccc1)C(=O)N[C@@H](CC(C(F)(F)F)C(F)(F)F)C(=O)N[C@@H](Cc1c[nH]cn1)C(=O)N[C@@H](C)C(=O)N[C@@H](C)C(=O)N[C@@H](CCCCN)C(=O)N[C@@H](CCCCN)C(=O)N[C@@H](Cc1ccccc1)C(=O)N[C@@H](C)C(=O)N[C@@H](CCCCN)C(=O)N[C@@H](C)C(=O)N[C@@H](Cc1ccccc1)C(=O)N[C@H](C(=O)N[C@@H](C)C(=O)N[C@@H](CCC(=O)O)C(=O)N[C@@H](CC(C(F)(F)F)C(F)(F)F)C(=O)N[C@@H](CCSC)C(=O)N[C@@H](CC(N)=O)C(=O)N[C@@H](CO)C(N)=O)C(C)C [Peptide M2F2] (H-GIGKF[Leu(5,5,5,5',5',5'-F6)]HAAKKFAKAFVAE[Leu(5,5,5,5',5',5'-F6)]MNS-NH2) | 0.165 min⁻¹ | – | –
5 | CC[C@H](C)[C@H](NC(=O)CN)C(=O)NCC(=O)N[C@@H](CCCCN)C(=O)N[C@@H](Cc1ccccc1)C(=O)N[C@@H](CC(C(F)(F)F)C(F)(F)F)C(=O)N[C@@H](Cc1c[nH]cn1)C(=O)N[C@@H](C)C(=O)N[C@@H](CC(C(F)(F)F)C(F)(F)F)C(=O)N[C@@H](CCCCN)C(=O)N[C@@H](CCCCN)C(=O)N[C@@H](Cc1ccccc1)C(=O)N[C@@H](CC(C(F)(F)F)C(F)(F)F)C(=O)N[C@@H](CCCCN)C(=O)N[C@@H](C)C(=O)N[C@@H](Cc1ccccc1)C(=O)N[C@@H](CC(C(F)(F)F)C(F)(F)F)C(=O)N[C@@H](C)C(=O)N[C@@H](CCC(=O)O)C(=O)N[C@@H](CC(C(F)(F)F)C(F)(F)F)C(=O)N[C@@H](CCSC)C(=O)N[C@@H](CC(N)=O)C(=O)N[C@@H](CO)C(N)=O [Peptide M2F5] (H-GIGKF[Leu(5,5,5,5',5',5'-F6)]HA[Leu(5,5,5,5',5',5'-F6)]KKF[Leu(5,5,5,5',5',5'-F6)]KAF[Leu(5,5,5,5',5',5'-F6)]AE[Leu(5,5,5,5',5',5'-F6)]MNS-NH2) | 0.00255 ± 0.00026 min⁻¹ | 16 fold | 4 fold
